Reference: PubChem BioAssay AID1259327 (Drosophila RNAi Screening Center, 2017)
This is a random part of about 3,100 reagents. 378 of them (12%) count as active. 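Hits include both directions; z-score sign shows ATP rise or fall; raw luminescence values are not plate-normalised.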 Unmarked entries are inactive. No sequences are given here. Not stated in the record: the amount of reagent.

- Purpose: 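Baseline ATP after transmembrane-protein gene knock-down with water vehicle only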
- Cell system: Drosophila S2R+ cells
- Reagents: long dsRNA against Drosophila genes
- Time to read-out: 5 days (water added on day 4, read one day later)
- Challenge: water added as vehicle, no metal, one day before read-out
- Detection: 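Luciferase ATP signal per well, normalised to plate mean, duplicate average converted to z-score across plates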
- Direction: ATP z-score: higher = more total ATP than typical wells; ATP luminescence: higher = more total ATP
- Call rule: 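a hit is any knock-down whose absolute ATP z-score is greater than 1.5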
- Calls: active = hit: ATP up or down; inactive = no clear ATP change

target gene	amplicon	ATP z-score, duplicate mean	ATP luminescence, replicate 1 (RLU)	ATP luminescence, replicate 2 (RLU)
KdelR	DRSC03353	0.0533	4.56e5	5.11e5
nAChRalpha4	DRSC11925	-0.73	8.70e5	7.78e5
nAChRalpha4	DRSC26817	-1.4	9.27e5	1.05e6
Gli	DRSC03332	-0.0634	7.01e5	7.37e5
Gli	DRSC39818	-0.959	4.77e5	3.41e5
CG14856	DRSC14980	1.1	3.25e5	9.40e5
CG32687	DRSC18210	0.247	7.35e5	8.06e5
CG32687	DRSC18237	-1.81 (active)	6.02e5	5.77e5
CG32687	DRSC37079	3.87 (active)	8.93e5	9.22e5
OstDelta	DRSC06980	0.353	7.03e5	8.36e5
OstDelta	DRSC27205	-0.245	7.52e5	8.73e5
dpy	DRSC00233	-0.00221	7.36e5	7.48e5
dpy	DRSC00234	0.109	7.28e5	7.82e5
dpy	DRSC00472	0.28	7.73e5	7.39e5
VAChT	DRSC13311	-1.04	5.90e5	6.73e5
VAChT	DRSC23986	-0.986	7.30e5	7.25e5
CG3603	DRSC18317	-1.39	5.53e5	7.03e5
CG3603	DRSC39790	-0.245	4.36e5	4.89e5
SLC22A	DRSC11826	-1.17	8.17e5	6.71e5
SLC22A	DRSC11827	0.888	1.08e6	9.50e5
CngB	DRSC04297	0.53	7.57e5	8.19e5
sNPF-R	DRSC10836	0.531	9.87e5	9.44e5
nAChRalpha1	DRSC13672	-0.513	8.22e5	8.35e5
nAChRalpha1	DRSC17008	1.83 (active)	3.99e5	9.16e5
CG31454	DRSC22801	-1.06	5.77e5	4.02e5
CG31454	DRSC24377	1.04	9.68e5	9.30e5
comm	DRSC11336	-0.565	8.83e5	7.64e5
comm	DRSC24259	-0.633	8.09e5	7.34e5

Entries listed so far whose gene name begins with G or g (2):
target gene	amplicon	ATP z-score, duplicate mean	ATP luminescence, replicate 1 (RLU)	ATP luminescence, replicate 2 (RLU)
Gli	DRSC03332	-0.0634	7.01e5	7.37e5
Gli	DRSC39818	-0.959	4.77e5	3.41e5
